# Results: the supplement of paper PMC9549374
# The list shows a part of the results. Rule as the data show it: active = 2-fold of DMSO or more and inactive = the rest. Single values of this set are uncertain. Some low values are a fixed figure set by the source, not a measured ratio.
# Tested on: CM7/1-hgem mouse ES cell-derived cardiomyocytes
# Test: maximal number of mAG-hGem(1/110)-positive cardiomyocytes over 96 h, fold-change vs DMSO; higher = more cardiomyocyte cell cycle activity
# Conditions: 1 µM; 96 (max over 12 h time points) h
row,SMILES,maximal number
1,CC1=C2C(=CO[C@H](C)[C@H]2C)C(O)=C(C(=O)O)C1=O,inactive: 1
2,CCC(C)C(=O)O[C@@H]1C[C@@]2(C)[C@H](c3ccoc3)OC(=O)CC23OC2(C)O[C@]14[C@]1(C)[C@@H](CC(=O)OC)C5(C)CC1(O)[C@](O)(C5OC(=O)C1(C)OC1C)[C@@H](OC(C)=O)[C@]34O2 (stereo partly drawn),inactive: 1
3,CCC(=O)O[C@H]1CC[C@H]2[C@@H]3CCC4=CC(=O)CC[C@]4(C)[C@H]3CC[C@]12C,inactive: 1
4,O=c1n(Cl)c(=O)n(Cl)c(=O)n1Cl,inactive: 0
5,CC[C@@H](C(=O)[C@@H](C)[C@@H](O)[C@H](C)[C@@H]1O[C@@H]([C@@H](CC)C(=O)O)CC[C@@H]1C)[C@H]1O[C@]2(C=C[C@@H](O)[C@]3(CC[C@@](C)([C@H]4CC[C@](O)(CC)[C@H](C)O4)O3)O2)[C@H](C)C[C@@H]1C,inactive: 1
6,C[C@@H]1CC[C@@]2(OC1)O[C@H]1[C@@H](O)[C@H]3[C@@H]4CC[C@H]5C[C@@H](O[C@@H]6O[C@H](CO)[C@H](O[C@@H]7O[C@H](CO)[C@@H](O)[C@H](O[C@@H]8OC[C@@H](O)[C@H](O)[C@H]8O)[C@H]7O[C@@H]7O[C@H](CO)[C@H](O)[C@H](O[C@@H]8O[C@H](CO)[C@@H](O)[C@H](O)[C@H]8O)[C@H]7O)[C@H](O)[C@H]6O)[C@H](O)C[C@]5(C)[C@H]4CC[C@]3(C)[C@H]1[C@@H]2C,inactive: 0
7,C[C@@H]1C[C@H](O)[C@@]2(O)[C@]13CC(=O)OC[C@@]2(C)[C@@](C)(O)C(=O)C3,inactive: 1
8,COc1ccc(C(=O)O)cc1OC,inactive: 1
9,N.N.[Cl][Pt][Cl],inactive: 0
10,N#C/C(=C\c1ccc(O)cc1)C(=O)O [alpha-CYANO-4-HYDROXYCINNAMIC ACID],inactive: 1
11,COc1cc(OC)c2c(c1)O[C@H](c1ccc(OC)c(OC)c1)[C@@H](O)C2,inactive: 1
12,CC(=O)OCC1=C(C(=O)O)N2C(=O)[C@@H](NC(=O)CCC[C@@H](N)C(=O)O)[C@H]2SC1,inactive: 1
13,C[C@]12CC[C@H]3[C@@H](CC[C@]4(O)C[C@@H](O)CC[C@]34C=O)[C@@]1(O)CC[C@@H]2C1=CC(=O)OC1,inactive: 0
14,CC1=C(O)C(=O)C=C2C1=CC=C1[C@@]2(C)CC[C@@]2(C)[C@@H]3C[C@](C)(C(=O)O)CC[C@]3(C)CC[C@]12C,inactive: 1
15,Oc1ccc2c3c1O[C@H]1[C@@H](O)CC[C@@]4(O)[C@@H](C2)N(CC2CCC2)CC[C@]314,inactive: 1
16,CC(C)=CCC[C@]1(C)C=Cc2c(O)c3c(c(CC=C(C)C)c2O1)O[C@]12C(=C[C@@H]4C[C@H]1C(C)(C)O[C@@]2(C/C=C(/C)C(=O)O)C4=O)C3=O,inactive: 1
17,CCC(N)C(O)c1ccc(O)c(O)c1 (stereo not drawn),inactive: 1
18,CC(=O)O[C@@H]1C[C@H]2C(C)(C)C(=O)C=C[C@]2(C)[C@H]2CC[C@]3(C)C(=CC(=O)O[C@H]3c3ccoc3)[C@@]21C,inactive: 0
19,CC(=O)O[C@H]1CC[C@@]2(C)[C@H](CC[C@@H]3[C@@H]2CC[C@]2(C)[C@@H](C4=CC(=O)OC4)[C@@H](OC(C)=O)C[C@]32O)C1,inactive: 1
20,COc1ccc2c(c1O)-c1c(OC)c(OC)cc3c1[C@H](C2)N(C)CC3,inactive: 1
21,COc1cc2c3cc1Oc1c(OC)c(OC)cc4c1[C@@H](Cc1cccc(c1)Oc1ccc(c(O)c1)C[C@@H]3N(C)CC2)N(C)CC4,inactive: 1
22,C[C@@H]1CC[C@]2(NC1)O[C@H]1C[C@H]3[C@@H]4CC=C5C[C@@H](O)CC[C@]5(C)[C@H]4CC[C@]3(C)[C@H]1[C@@H]2C,inactive: 0.5
23,NNCc1ccccc1,inactive: 1
24,CC([C@H](O)c1ccccc1)N(C)C (stereo partly drawn),inactive: 1
25,C[C@@H]1C[C@@H]([C@H](O)CC2CC(=O)NC(=O)C2)C(=O)[C@@H](C)C1,inactive: 1
26,CN1CCN(C(=O)OC2c3nccnc3C(=O)N2c2ccc(Cl)cn2)CC1 (stereo not drawn),inactive: 0.5
27,C[C@]12CC[C@@H]3c4ccc(OC(=O)N(CCCl)CCCl)cc4CC[C@H]3[C@@H]1CC[C@@H]2O,inactive: 0
28,"CC1(C)C(=O)[C@@H]2O[C@@H]2[C@@]2(C)C1C[C@@H](O)[C@]1(C)C2CC[C@@]2(C)[C@H](c3ccoc3)OC(=O)C3OC321 (stereo partly drawn) [1,2alpha-EPOXYDEACETOXYDIHYDROGEDUNIN]",inactive: 1

# Given tab-delimited: part of the list above.
row	SMILES	maximal number
9	N.N.[Cl][Pt][Cl]	inactive: 0
24	CC([C@H](O)c1ccccc1)N(C)C (stereo partly drawn)	inactive: 1
